Here are results for ten sequences from US20150045248.

The chains behind the UniProt entries cited, without tags or fusion partners. Where a name states a change or a piece, a line headed by the entry shows the natural chain unless it says otherwise. Residues count along the entry.
UniProt O75746, 2-678: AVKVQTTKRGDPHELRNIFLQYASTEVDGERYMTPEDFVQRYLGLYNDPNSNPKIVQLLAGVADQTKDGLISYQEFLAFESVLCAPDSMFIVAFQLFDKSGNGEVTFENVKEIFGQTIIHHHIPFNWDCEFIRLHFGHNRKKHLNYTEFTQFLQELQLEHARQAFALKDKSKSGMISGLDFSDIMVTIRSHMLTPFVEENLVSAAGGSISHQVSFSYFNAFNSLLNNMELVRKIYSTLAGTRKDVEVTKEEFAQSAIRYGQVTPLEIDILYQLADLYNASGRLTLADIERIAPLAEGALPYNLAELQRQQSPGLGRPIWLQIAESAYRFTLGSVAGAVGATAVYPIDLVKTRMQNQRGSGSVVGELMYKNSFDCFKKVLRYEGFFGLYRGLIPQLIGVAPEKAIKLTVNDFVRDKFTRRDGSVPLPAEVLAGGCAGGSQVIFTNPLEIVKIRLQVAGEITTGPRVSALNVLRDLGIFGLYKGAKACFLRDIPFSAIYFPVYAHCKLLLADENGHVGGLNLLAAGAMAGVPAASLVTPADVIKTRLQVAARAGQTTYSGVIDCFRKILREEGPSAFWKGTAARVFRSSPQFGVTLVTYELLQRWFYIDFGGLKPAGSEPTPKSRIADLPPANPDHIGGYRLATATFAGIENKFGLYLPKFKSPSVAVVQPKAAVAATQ
UniProt Q96DH6: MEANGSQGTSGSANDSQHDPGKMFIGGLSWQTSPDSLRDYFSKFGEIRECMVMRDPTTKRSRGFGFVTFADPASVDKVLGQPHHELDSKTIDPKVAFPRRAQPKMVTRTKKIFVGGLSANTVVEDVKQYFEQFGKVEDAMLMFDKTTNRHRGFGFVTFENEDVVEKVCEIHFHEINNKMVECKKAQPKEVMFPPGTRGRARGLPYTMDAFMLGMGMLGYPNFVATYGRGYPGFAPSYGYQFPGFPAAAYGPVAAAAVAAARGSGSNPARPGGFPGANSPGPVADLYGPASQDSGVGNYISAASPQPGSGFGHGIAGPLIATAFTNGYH
UniProt Q9UJS0, 2-675: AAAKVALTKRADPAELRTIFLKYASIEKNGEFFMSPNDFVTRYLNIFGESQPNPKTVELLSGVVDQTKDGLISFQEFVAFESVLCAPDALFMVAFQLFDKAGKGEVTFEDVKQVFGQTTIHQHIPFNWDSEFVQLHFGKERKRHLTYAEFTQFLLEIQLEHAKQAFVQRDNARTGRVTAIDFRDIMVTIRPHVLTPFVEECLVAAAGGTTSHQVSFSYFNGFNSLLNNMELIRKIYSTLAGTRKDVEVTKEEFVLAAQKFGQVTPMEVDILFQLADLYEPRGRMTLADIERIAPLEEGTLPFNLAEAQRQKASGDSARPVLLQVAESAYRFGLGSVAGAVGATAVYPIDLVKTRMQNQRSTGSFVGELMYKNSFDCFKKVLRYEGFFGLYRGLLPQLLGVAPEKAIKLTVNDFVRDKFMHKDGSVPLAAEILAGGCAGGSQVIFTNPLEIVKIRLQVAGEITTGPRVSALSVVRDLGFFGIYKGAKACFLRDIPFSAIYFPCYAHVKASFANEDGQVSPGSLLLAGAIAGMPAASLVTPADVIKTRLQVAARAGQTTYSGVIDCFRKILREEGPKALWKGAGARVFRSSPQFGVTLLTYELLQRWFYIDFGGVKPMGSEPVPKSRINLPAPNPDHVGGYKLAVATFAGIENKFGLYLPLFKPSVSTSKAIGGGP

Where cells or extracts were used, other partners may take part. For some of these results: Negatives hold for the conditions tested. For some of these results: Weaker means in comparison with the reference protein, sequence or condition of that experiment. For some of these results: Construct, isoform or probe ends are uncertain for at least one entry.

Series [1] addresses TDP-43 (wild type) (Homo sapiens) (UniProt Q13148). Briefly: pull-down. The note with it: Flag-IP, LC-MS/MS and Northern, protein in a lysate after overexpression, protein details: DAP tag (6xHis-biotinylated-Flag), N-terminal.
Series [2] has the same target. As to the kind of experiment: competition with a labelled probe. The settings on record: protein in a lysate after overexpression, protein details: DAP tag (6xHis-biotinylated-Flag), N-terminal, single-stranded DNA.
For another series, the target named is Aralar 1 (SLC25A12) (UniProt O75746). As to the kind of experiment: pull-down. The note with it: did not co-immunoprecipitate; protein in an extract.
Series [3] has as its target TDP-43 dGR deletion of GR domain (Homo sapiens) (UniProt Q13148). As to the kind of experiment: pull-down. The settings on record: Flag-IP Northern; protein in a lysate after overexpression; protein details: DAP tag (6xHis-biotinylated-Flag).
A further series deals with Musashi 2 (UniProt Q96DH6). As to the kind of experiment: pull-down. The settings on record: co-IP Northern; protein in a lysate after overexpression; protein details: DAP tag.
Series [4] has as its target TDP-43 dRRM1 deletion of RRM1 domain (Homo sapiens) (UniProt Q13148). As to the kind of experiment: pull-down. The settings on record: Flag-IP Northern; protein in a lysate after overexpression; protein details: DAP tag (6xHis-biotinylated-Flag).
In another series the target is Aralar 2 (citrin) (UniProt Q9UJS0). As to the kind of experiment: pull-down. The note with it: did not co-immunoprecipitate; protein in an extract.
The target in series [5] is TDP-43 d315 (Homo sapiens) (UniProt Q13148). As to the kind of experiment: pull-down. The note with it: Flag-IP Northern; protein in a lysate after overexpression; protein details: DAP tag (6xHis-biotinylated-Flag).
Series [6] concerns the target TDP-43 dRRM2 deletion of RRM2 domain (Homo sapiens) (UniProt Q13148). Briefly: pull-down. The settings on record: Flag-IP Northern; protein in a lysate after overexpression; protein details: DAP tag (6xHis-biotinylated-Flag).
[7] abbreviates: 200 nM, some inhibition of mt-tRNA binding, variant of mt-tRNAAsn.

Turning to “CAGAGAAUAGUUUAAAUUAGAAUCUUAGCUUUGGGUGCUAAUGGUGGAGUUAAAGACUUUUUCUCUGACCA [mt-tRNAPro]”, the binding result in series [1] is on record as “binds”.

Turning to “GCTTAGCTGTTAACTAAGTGTTT [Anticodon oligonucleotide]”, the binding result in [2] (200 nM, little inhibitory effect, variant of mt-tRNAAsn) is “no binding”.

In the case of “GTGGGTTTAAGTCCCATTGGTCTAG [T-loop oligonucleotide]”, in series [2] (setting [7]), the binding result is on record as “binds more weakly”.

Take “GUUCUUGUAGUUGAAAUACAACGAUGGUUUUUCAUAUCAUUGGUCGUGGUUGUAGUCCGUGCGAGAAUACCA [mt-tRNAGlu]”: in series [1], the binding result was “binds”.

On to “TAGATTGAAGCCAGTTGATTAGGGT [D-loop oligonucleotide]”, for which, in [2] (setting [7]), the binding result was “binds more weakly”.

On to TCTCTCTCTCTCTCTCTCTCTCTC [(TC)12], for which the binding result in series [2] (200 nM, no inhibition of mt-tRNA binding) was “no binding”.

On to TGTGTGTGTGTGTGTGTGTGTGTG [(TG)12], for which the binding result in series [2] (strongest inhibition of mt-tRNA binding at 200 nM in cell extract, concentration-dependent over 2, 20, 200 nM) is recorded as “binds”.

For TTGTTGTTGTTGTTGTTGTTGTTG [TT(GTT)7G], the binding result in series [2] (200 nM inhibits mt-tRNA binding, less than (TG)12) is “binds”.

With “UAGAUUGAAGCCAGUUGAUUAGGGUGCUUAGCUGUUAACUAAGUGUUUGUGGGUUUAAGUCCCAUUGGUCUAGCCA [mt-tRNAAsn]”, the binding result is “no binding” with Aralar 1 (SLC25A12); “binds” in series [3]; “binds” with Musashi 2; “no binding” in series [4]; “binds” in [1] (urea PAGE, 50 mM Tris pH 7.4, 150 mM NaCl, 4 C); “no binding” with Aralar 2 (citrin). The binding result in [5] and in series [6] was “binds” throughout.

“UAGGAUGGGGUGUGAUAGGUGGCACGGAGAAUUUUGGAUUCUCAGGGAUGGGUUCGAUUCUCAUAGUCCUAGCCA [mt-tRNAGln]”: the binding result in series [3] is listed as “binds”; with Musashi 2, “binds”; in [4], “no binding”; in series [1] it was “binds”; in [5], “binds”; in [6], “binds”.
